# No constants are given. Whether binding was seen depends on the method and setting. In cells and extracts the contact can be indirect. Binding calls can cover weak binding; strength is not graded here.
# B1: Mkl2 (NanoBiT construct) (protein, UniProt P59759 1-1080)
# chain: MIDSSKKQPQGFPEILTAEDFEPFKEKECLEGSNQKSLKEVLQLRLQQRRTREQLVDQGIMPPLKSPAAFHEQIKSLERARTENFLKHKIRSRPDRSELVRMHILEETFAEPSLQATQMKLKRARLADDLNEKIAQRPGPMELVEKNILPVDSSVKEAIIGVVKEDYPHTHGEFSFDEDSSDALSPDQPASQESQGSAASPSEPKVSASPPPVTASTPAQFTSVSPAVPEFLKTPLTADQPPTRSTAPVLPTNTVSSAKSGPMLVKQSHPKNPNDKHRSKKCKDPKPRVKKLKYHQYIPPNQKGEKSEPQMDSNYARLLQQQQLFLQLQILSQQQQQQQQQHYNYQTILPAPIKTDKNSSSGSNSGSSSSMPARRPGPLPSSLDDLKVSELKTELKLRGLPVSGTKPDLIERLKPYQEVTSSNLATGSIVAVSSATIVTSNPEVTVALPVTTLHNAVTSSVSTFKADLALPATSSVPHVENAHSPLPISPSPSEQSSLSTDDTNMTDTFTEIMTMMSPSQLLCSSPLRVVSHDDSLSPSSSTLSTLELDAAEKDRKLQEKEKQIEELKRKLEQEQKLVEVLKMQLEVEKRGQQRPPDPQPSDPPHPFNTSDPKHGSVGSSIKDEASLPDCSSPQQPITVPGHSVGQPISTGSQTLVAKKTVVVKQEVPMAQAEQQNVVSQFYLSSQGQPPALVAQPQALLTTQTTQLLLPVSIQGSNVTSVQLPVGSLQLQTPAQGRVQAQPHVAAATQVPAAALPSALTSALPQKQEAFPQHVLGQPQPVRKVFTNSAPNTVLQYQRQPGPTNQQPFVSKTSNPALQSRTAPLAPLQNGPSLASKPSSPPPPQQFVVQHSLFATPITKTKDPPRYEEAIKQTRSTQPALPEVSSVHSQQMDDLFDILIKSGEISFPIKEEPSPISKMKPVTASITTMPVNTVVSRPPPQVQIAPPVSLEPVNSLSASLENQLEAFLDGTLPSATDTGPLQNSSEDRESFSLIEDLQNDLLSHSSMLYQSHSPMETSEAQLVSGTPCLSLDLSDSNLDNMEWLDITMPTTSSGLTPLSTTAPSMFSADFLDPQDLPLPWD
# Target: Foxo1 lacking the forkhead domain (NanoBiT deletion construct) (mouse)
# Test: split reporter
binder,measurement,value
B1,binding,binds
